PubChem BioAssay AID1508597 – Cure First | 2020

- Aim: 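Genes whose silencing sensitises or protects ovarian cancer cells against rucaparib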 (primary screen)
- System: human ovarian carcinoma lines grown from tumours: OCI-P5x (papillary serous) and OCI-C5x (clear cell)
- Knock-down reagent: siRNA pool against human genes, 1.25 pmol siRNA per well
- Duration: 72 h or 96 h, depending on the cell culture
- Treatment: rucaparib 20 µM (about IC30) or vehicle, present until read-out
- Read-out: 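Luminescent ATP-based viability assay read 72 or 96 h after transfection, depending on culture, given as normalised percent viability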
- Scale: viability, normalised: higher = more viable cells remaining
- Hit rule: 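Active when normalised viability falls below 80 percent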
- Meaning of the calls: active = viability under 80%; inactive = viability 80% or more
The whole screen tested about 2,100 reagents; below is an unselected part. 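Calls flag viability under 80% in either arm, not effects specific to rucaparib; the reference for percent is not stated.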 Some reagents were tested in more than one well and are listed for each. The record does not give: the 100% reference.

Gene | rucaparib or vehicle | cell line | technical replicate | viability, normalised (%) | outcome
SPTA1 | Rucaparib | OCI-C5x (clear cell) | 1 | 56.7 | active
SPTA1 | Rucaparib | OCI-C5x (clear cell) | 2 | 64.6 | active
SPTA1 | Rucaparib | OCI-C5x (clear cell) | 3 | 71 | active
SPTA1 | Rucaparib | OCI-P5x (serous) | 1 | 61.8 | active
SPTA1 | Rucaparib | OCI-P5x (serous) | 2 | 65.1 | active
SPTA1 | Rucaparib | OCI-P5x (serous) | 3 | 63 | active
SPTA1 | Vehicle | OCI-C5x (clear cell) | 1 | 47.8 | active
SPTA1 | Vehicle | OCI-C5x (clear cell) | 2 | 56.1 | active
SPTA1 | Vehicle | OCI-C5x (clear cell) | 3 | 42.4 | active
SPTA1 | Vehicle | OCI-P5x (serous) | 1 | 56.4 | active
SPTA1 | Vehicle | OCI-P5x (serous) | 2 | 64.2 | active
SPTA1 | Vehicle | OCI-P5x (serous) | 3 | 61.9 | active
BMPR2 | Rucaparib | OCI-C5x (clear cell) | 1 | 62.6 | active
BMPR2 | Rucaparib | OCI-C5x (clear cell) | 2 | 53.8 | active
BMPR2 | Rucaparib | OCI-C5x (clear cell) | 3 | 52.1 | active
BMPR2 | Rucaparib | OCI-P5x (serous) | 1 | 83 | inactive
BMPR2 | Rucaparib | OCI-P5x (serous) | 2 | 87.4 | inactive
BMPR2 | Rucaparib | OCI-P5x (serous) | 3 | 78.4 | active
BMPR2 | Vehicle | OCI-C5x (clear cell) | 1 | 71.3 | active
BMPR2 | Vehicle | OCI-C5x (clear cell) | 2 | 57 | active
BMPR2 | Vehicle | OCI-C5x (clear cell) | 3 | 59.4 | active
BMPR2 | Vehicle | OCI-P5x (serous) | 1 | 77.3 | active
BMPR2 | Vehicle | OCI-P5x (serous) | 2 | 67.2 | active
BMPR2 | Vehicle | OCI-P5x (serous) | 3 | 69.9 | active
GCKR | Rucaparib | OCI-C5x (clear cell) | 1 | 26.5 | active
GCKR | Rucaparib | OCI-C5x (clear cell) | 2 | 14.3 | active
GCKR | Rucaparib | OCI-C5x (clear cell) | 3 | 17.7 | active
GCKR | Rucaparib | OCI-P5x (serous) | 1 | 49.4 | active
GCKR | Rucaparib | OCI-P5x (serous) | 2 | 47.2 | active
GCKR | Rucaparib | OCI-P5x (serous) | 3 | 42.3 | active
GCKR | Vehicle | OCI-C5x (clear cell) | 1 | 37.8 | active
GCKR | Vehicle | OCI-C5x (clear cell) | 2 | 35.5 | active
GCKR | Vehicle | OCI-C5x (clear cell) | 3 | 37.1 | active
GCKR | Vehicle | OCI-P5x (serous) | 1 | 51.6 | active
GCKR | Vehicle | OCI-P5x (serous) | 2 | 48.6 | active
GCKR | Vehicle | OCI-P5x (serous) | 3 | 53.5 | active

Ordered by “viability, normalised (%)” (lowest first): some entries from above
Gene | rucaparib or vehicle | cell line | technical replicate | viability, normalised (%) | outcome
BMPR2 | Rucaparib | OCI-C5x (clear cell) | 3 | 52.1 | active
BMPR2 | Rucaparib | OCI-C5x (clear cell) | 2 | 53.8 | active
BMPR2 | Rucaparib | OCI-C5x (clear cell) | 1 | 62.6 | active
BMPR2 | Rucaparib | OCI-P5x (serous) | 3 | 78.4 | active
BMPR2 | Rucaparib | OCI-P5x (serous) | 1 | 83 | inactive
BMPR2 | Rucaparib | OCI-P5x (serous) | 2 | 87.4 | inactive

More results follow.
Gene | rucaparib or vehicle | cell line | technical replicate | viability, normalised (%) | outcome
KCTD13 | Rucaparib | OCI-C5x (clear cell) | 1 | 67.2 | active
KCTD13 | Rucaparib | OCI-C5x (clear cell) | 2 | 62.1 | active
KCTD13 | Rucaparib | OCI-C5x (clear cell) | 3 | 64.6 | active
KCTD13 | Rucaparib | OCI-P5x (serous) | 1 | 98.9 | inactive
KCTD13 | Rucaparib | OCI-P5x (serous) | 2 | 100 | inactive
KCTD13 | Rucaparib | OCI-P5x (serous) | 3 | 94.5 | inactive
KCTD13 | Vehicle | OCI-C5x (clear cell) | 1 | 48 | active
KCTD13 | Vehicle | OCI-C5x (clear cell) | 2 | 46.5 | active
KCTD13 | Vehicle | OCI-C5x (clear cell) | 3 | 49.3 | active
KCTD13 | Vehicle | OCI-P5x (serous) | 1 | 94.8 | inactive
KCTD13 | Vehicle | OCI-P5x (serous) | 2 | 73.1 | active
KCTD13 | Vehicle | OCI-P5x (serous) | 3 | 73.7 | active
ALPK1 | Rucaparib | OCI-C5x (clear cell) | 1 | 46.8 | active
ALPK1 | Rucaparib | OCI-C5x (clear cell) | 1 | 80.1 | inactive
ALPK1 | Rucaparib | OCI-C5x (clear cell) | 2 | 49.2 | active
ALPK1 | Rucaparib | OCI-C5x (clear cell) | 2 | 44.2 | active
ALPK1 | Rucaparib | OCI-C5x (clear cell) | 3 | 57.5 | active
ALPK1 | Rucaparib | OCI-C5x (clear cell) | 3 | 50.1 | active
ALPK1 | Rucaparib | OCI-P5x (serous) | 1 | 73 | active
ALPK1 | Rucaparib | OCI-P5x (serous) | 1 | 89.1 | inactive
ALPK1 | Rucaparib | OCI-P5x (serous) | 2 | 77.3 | active
ALPK1 | Rucaparib | OCI-P5x (serous) | 2 | 108 | inactive
ALPK1 | Rucaparib | OCI-P5x (serous) | 3 | 90.6 | inactive
ALPK1 | Rucaparib | OCI-P5x (serous) | 3 | 78.5 | active
ALPK1 | Vehicle | OCI-C5x (clear cell) | 1 | 70.4 | active
ALPK1 | Vehicle | OCI-C5x (clear cell) | 1 | 61 | active
ALPK1 | Vehicle | OCI-C5x (clear cell) | 2 | 58.8 | active
ALPK1 | Vehicle | OCI-C5x (clear cell) | 2 | 53 | active
ALPK1 | Vehicle | OCI-C5x (clear cell) | 3 | 59.3 | active
ALPK1 | Vehicle | OCI-C5x (clear cell) | 3 | 63.3 | active
ALPK1 | Vehicle | OCI-P5x (serous) | 1 | 66 | active
ALPK1 | Vehicle | OCI-P5x (serous) | 1 | 77.3 | active
ALPK1 | Vehicle | OCI-P5x (serous) | 2 | 64.2 | active
ALPK1 | Vehicle | OCI-P5x (serous) | 2 | 72.4 | active
ALPK1 | Vehicle | OCI-P5x (serous) | 3 | 69.7 | active
ALPK1 | Vehicle | OCI-P5x (serous) | 3 | 84.8 | inactive
